According to PubChem BioAssay AID504845 (National Center for Advancing Translational Sciences (NCATS), 2011):
Among all 390,000 compounds or so, about 150 (0.038%) were called active. The source calls these results inconclusive, neither active nor inactive. Calls come from the whole dose curve; as a rule, active = well fitted inhibition curve with a large enough effect; inconclusive = small, poorly fitted or top-dose-only effect; inactive = no such curve, though single readings can be large or run the other way.

Chains of the proteins cited; added tags and fusions are not shown.
UniProt P49798, whole entry: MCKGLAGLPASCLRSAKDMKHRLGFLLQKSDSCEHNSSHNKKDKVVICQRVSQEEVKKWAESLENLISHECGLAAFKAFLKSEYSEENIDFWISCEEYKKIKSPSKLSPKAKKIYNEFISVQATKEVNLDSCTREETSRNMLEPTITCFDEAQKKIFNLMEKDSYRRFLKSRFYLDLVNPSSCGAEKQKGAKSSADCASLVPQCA

molecular target: Regulator of G-protein signaling 4 (Homo sapiens) (UniProt P49798); assay: Inhibitors of Regulator of G Protein Signaling (RGS) 4: qHTS; conditions: Transcreener GDP fluorescence polarization, RGS4-accelerated GTP hydrolysis; note: nearly all actives have a fitted effect of over 75% in size
Excerpt: G-protein-coupled receptors (GPCRs) are well-established targets for drug discovery and development. Members of the "regulator of G-protein signaling" (RGS)-protein superfamily have recently emerged as critical modulators of specific GPCR signaling pathways. […] Combining specific RGS domain inhibitors with existing GPCR agonists should potentiate cellular responses and could also increase the specificity of action of existing therapeutics. Small molecule modulators of RGS domain activity should also have clinical utility in inhibiting or potentiating the actions of endogenous GPCR agonists. In particular, the diversity of RGS proteins with highly localized and dynamically regulated distributions in the human brain makes this family of proteins attractive targets for pharmacotherapy of central nervous system (CNS) disorders such as Parkinson's disease, schizophrenia, and anxiety.
This assay was used to screen the NIH Molecular Libraries Small Molecule Repository (MLSMR) in order to identify a small molecule that inhibits RGS4.
NIH Chemical Genomics Center [NCGC]
NIH Molecular Libraries Probe Centers Network [MLPCN]
Assay Submitter (PI): David Siderovski, University of North Carolina Chapel Hill (School of Medicine)
Two microliters of 500nM (2x working concentration) is dispensed into black medium-binding solid-bottom Kalypsys plates. Then with the Kalypsys pintool 23nl of control and compounds are transferred; the control compound is […] CCG-4986 (working concentration). […] An initial fluorescent polarization read (620 nm/688 nm) is performed on the Envision before the plate is incubated for 90 minutes at 30 deg C at a relative humidity of 80%. The plate is once more centrifuged at 1000 RPM for 15 seconds and another Envision fluorescent polarization (620 nm/688 nm) read is carried out.
Potency is the fitted concentration of half-maximal effect.

| Structure (SMILES) | Potency |
| --- | --- |
| Cc1nc2ccc3ccccc3c2s1.O=[N+]([O-])c1cc([N+](=O)[O-])c(O)c([N+](=O)[O-])c1 | inconclusive: 79.4 µM |
| CP(=S)(Nn1cnnc1)Oc1ccccc1 (stereo not drawn) | inconclusive: 89.1 µM |
| COc1ccc(NP(C)(=O)Oc2ccccc2OC)cc1 (stereo not drawn) | inconclusive: 28.2 µM |
